Measurements published in patent US6054450A, “Hair-care cosmetic compositions having dandruff formation-suppressing effect” (Pacific Corporation, priority 1997, dated 2000).

Test: Adsorption into the head skin, Adhesive Scatch Tape Stripping Method

In the case of `[O-]n1ccccc1=S.[O-]n1ccccc1=S.[Zn+2]` [zinc pyrithione, zinc salt of 1-hydroxy-2(1H) pyridinethione], the “zinc pyrithione detected in tape strippings” value (dissolved zinc pyrithione) is reported as “detected at all of the 1st through 5th strippings” and the “zinc pyrithione detected in tape strippings” value (insoluble zinc pyrithione) is reported as “not detected from 2nd stripping”.
